The target of this test is Gnarl3 (product of phage accessory gene orf92) (Enterobacteriophage (lytic; which phage not stated)). The test is described as follows: affinity purification with mass spectrometry.

No constants are given. Whether binding was seen depends on the method and setting. In cells and extracts the contact can be indirect. These calls come from enrichment with a bait or labelling near it, and not all partners need be listed.

B1: GalU (enzyme, UniProt P0AEP3 1-302)
chain: MAAINTKVKKAVIPVAGLGTRMLPATKAIPKEMLPLVDKPLIQYVVNECIAAGITEIVLVTHSSKNSIENHFDTSFELEAMLEKRVKRQLLDEVQSICPPHVTIMQVRQGLAKGLGHAVLCAHPVVGDEPVAVILPDVILDEYESDLSQDNLAEMIRRFDETGHSQIMVEPVADVTAYGVVDCKGVELAPGESVPMVGVVEKPKADVAPSNLAIVGRYVLSADIWPLLAKTPPGAGDEIQLTDAIDMLIEKETVEAYHMKGKSHDCGNKLGYMQAFVEYGIRHNTLGTEFKAWLEEEMGIKK
B1: the binding entry was “binds”.

B2: GalE (enzyme, UniProt P09147 1-338)
chain: MRVLVTGGSGYIGSHTCVQLLQNGHDVIILDNLCNSKRSVLPVIERLGGKHPTFVEGDIRNEALMTEILHDHAIDTVIHFAGLKAVGESVQKPLEYYDNNVNGTLRLISAMRAANVKNFIFSSSATVYGDQPKIPYVESFPTGTPQSPYGKSKLMVEQILTDLQKAQPDWSIALLRYFNPVGAHPSGDMGEDPQGIPNNLMPYIAQVAVGRRDSLAIFGNDYPTEDGTGVRDYIHVMDLADGHVVAMEKLANKPGVHIYNLGAGVGNSVLDVVNAFSKACGKPVNYHFAPRREGDLPAYWADASKADRELNWRVTRTLDEMAQDTWHWQSRHPQGYPD
For the molecule B2, the binding result is recorded as “binds”.

B3: GalF (protein, UniProt P0AAB6 1-297)
chain: MTNLKAVIPVAGLGMHMLPATKAIPKEMLPIVDKPMIQYIVDEIVAAGIKEILLVTHASKNAVENHFDTSYELESLLEQRVKRQLLAEVQSICPPGVTIMNVRQGEPLGLGHSILCARPAIGDNPFVVVLPDVVIDDASADPLRYNLAAMIARFNETGRSQVLAKRMPGDLSEYSVIQTKEPLDREGKVSRIVEFIEKPDQPQTLDSDIMAVGRYVLSADIWPELERTQPGAWGRIQLTDAIAELAKKQSVDAMLMTGDSYDCGKKMGYMQAFVKYGLRNLKEGAKFRKGIEKLLSE
With B3, the binding result was “binds”.

The values are drawn from article doi:10.1101/2023.04.06.535777.
